Laboratory results: PubChem BioAssay AID743121 (NCATS, 2013)

- Test: 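Knock-downs that sensitise breast cancer cells to camptothecin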 (primary screen)
- System: MDA-MB-231 cells, a human breast cancer line
- Knock-down reagent: single siRNA against human genes, 20 nM siRNA (0.8 pmol per well)
- Duration: 120 h (drug added 48 h after transfection, read 72 h later)
- Challenge: camptothecin 20 nM (about EC30) for 72 h; vehicle 0.1% DMSO in parallel plates
- Measurement: 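Cell viability by ATP luminescence (CellTiter-Glo) as % of non-targeting siRNA wells, and the log2 ratio of viability without drug over viability with camptothecin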
- Scale: log2 vehicle/camptothecin viability: higher = stronger sensitisation to camptothecin; viability with camptothecin and viability without drug: higher = more viable cells
- Active means: 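Each gene scored by redundant siRNA activity (RSA) over its individual siRNA ratios; a gene is called active at p < 0.001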
This is a random part of about 26,000 reagents tested. Over the whole deposit, 167 (0.63%) are marked active. 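Calls are per gene from RSA p-values that are not deposited; an individual active-marked siRNA can sensitise only weakly.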 A number with no mark means an inactive call. The numbers tell different reagents against one gene apart. No sequences are given here.

no.	gene knocked down	reagent no.	log2 vehicle/camptothecin viability	viability with camptothecin (% of control)	viability without drug (% of control)
1	RAG2	1	0.0977	76.2	81.6
2	RAG2	2	0.0235	63.1	64.2
3	RAG2	3	-0.374	78.3	60.4
4	RAG2	4	-0.225	56.6	48.4
5	ATP2C2	1	-0.328	72.8	58
6	ATP2C2	2	-0.259	78	65.2
7	ATP2C2	3	-0.219	91	78.2
8	ATP2C2	4	1.15	43	95.4
9	P2RY1	1	0.186	101	114
10	P2RY1	2	-0.0848	108	102
11	P2RY1	3	-0.349	93.9	73.7
12	P2RY1	4	0.454	56.7	77.7
13	PCMT1	1	0.296	65.5	80.4
14	PCMT1	2	-0.524	82.4	57.3
15	PCMT1	3	-0.0273	99.9	98
16	PCMT1	4	-0.404	60.8	45.9
17	ZRANB1	1	-0.0031	98.8	98.6
18	ZRANB1	2	-0.154	81.7	73.4
19	ZRANB1	3	0.154	78.2	87
20	ZRANB1	4	-0.141	90.2	81.8
21	CUL1	1	-0.369	79.1	61.2
22	CUL1	2	0.251	59.1	70.3
23	CUL1	3	-0.465	107	77.4
24	CUL1	4	0.583	7.32	11
25	MKRN1	1	-0.244	51.1	43.2
26	MKRN1	2	-0.222	103	88.3
27	MKRN1	3	-0.413	67.4	50.7
28	MKRN1	4	-0.0353	81.1	79.1

Reprinted from above for reference:
no.	gene knocked down	reagent no.	log2 vehicle/camptothecin viability	viability with camptothecin (% of control)	viability without drug (% of control)
20	ZRANB1	4	-0.141	90.2	81.8
21	CUL1	1	-0.369	79.1	61.2
22	CUL1	2	0.251	59.1	70.3
